Measured values published in article PMC6904742.
These are yes or no findings as the source states them, for the method shown. Binding seen in cells or lysates may run through a third protein. Some results given as binding are weak or reduced against the parent protein; the word gives no strength. For part of these data: Sequences can lack the tags named with a protein.

By UniProt entry, the sequences of proteins in these tests, tags left out.
UniProt Q8NHV4: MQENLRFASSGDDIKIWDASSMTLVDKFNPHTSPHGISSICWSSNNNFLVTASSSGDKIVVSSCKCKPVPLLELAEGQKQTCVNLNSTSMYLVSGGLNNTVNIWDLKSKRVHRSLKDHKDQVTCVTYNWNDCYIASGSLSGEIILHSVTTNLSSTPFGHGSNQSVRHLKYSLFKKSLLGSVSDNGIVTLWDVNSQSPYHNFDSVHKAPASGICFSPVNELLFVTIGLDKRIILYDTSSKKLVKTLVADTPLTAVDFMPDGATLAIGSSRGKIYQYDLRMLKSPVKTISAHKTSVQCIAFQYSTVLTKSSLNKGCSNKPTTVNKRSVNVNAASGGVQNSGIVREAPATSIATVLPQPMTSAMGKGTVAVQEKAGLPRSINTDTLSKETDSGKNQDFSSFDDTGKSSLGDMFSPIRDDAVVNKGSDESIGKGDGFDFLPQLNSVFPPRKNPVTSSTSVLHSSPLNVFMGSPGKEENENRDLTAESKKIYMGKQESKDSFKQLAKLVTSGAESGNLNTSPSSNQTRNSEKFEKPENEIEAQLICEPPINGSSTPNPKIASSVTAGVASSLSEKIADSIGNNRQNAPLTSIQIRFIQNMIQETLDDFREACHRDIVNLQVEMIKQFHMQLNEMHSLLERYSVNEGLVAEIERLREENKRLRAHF
UniProt Q5SW79: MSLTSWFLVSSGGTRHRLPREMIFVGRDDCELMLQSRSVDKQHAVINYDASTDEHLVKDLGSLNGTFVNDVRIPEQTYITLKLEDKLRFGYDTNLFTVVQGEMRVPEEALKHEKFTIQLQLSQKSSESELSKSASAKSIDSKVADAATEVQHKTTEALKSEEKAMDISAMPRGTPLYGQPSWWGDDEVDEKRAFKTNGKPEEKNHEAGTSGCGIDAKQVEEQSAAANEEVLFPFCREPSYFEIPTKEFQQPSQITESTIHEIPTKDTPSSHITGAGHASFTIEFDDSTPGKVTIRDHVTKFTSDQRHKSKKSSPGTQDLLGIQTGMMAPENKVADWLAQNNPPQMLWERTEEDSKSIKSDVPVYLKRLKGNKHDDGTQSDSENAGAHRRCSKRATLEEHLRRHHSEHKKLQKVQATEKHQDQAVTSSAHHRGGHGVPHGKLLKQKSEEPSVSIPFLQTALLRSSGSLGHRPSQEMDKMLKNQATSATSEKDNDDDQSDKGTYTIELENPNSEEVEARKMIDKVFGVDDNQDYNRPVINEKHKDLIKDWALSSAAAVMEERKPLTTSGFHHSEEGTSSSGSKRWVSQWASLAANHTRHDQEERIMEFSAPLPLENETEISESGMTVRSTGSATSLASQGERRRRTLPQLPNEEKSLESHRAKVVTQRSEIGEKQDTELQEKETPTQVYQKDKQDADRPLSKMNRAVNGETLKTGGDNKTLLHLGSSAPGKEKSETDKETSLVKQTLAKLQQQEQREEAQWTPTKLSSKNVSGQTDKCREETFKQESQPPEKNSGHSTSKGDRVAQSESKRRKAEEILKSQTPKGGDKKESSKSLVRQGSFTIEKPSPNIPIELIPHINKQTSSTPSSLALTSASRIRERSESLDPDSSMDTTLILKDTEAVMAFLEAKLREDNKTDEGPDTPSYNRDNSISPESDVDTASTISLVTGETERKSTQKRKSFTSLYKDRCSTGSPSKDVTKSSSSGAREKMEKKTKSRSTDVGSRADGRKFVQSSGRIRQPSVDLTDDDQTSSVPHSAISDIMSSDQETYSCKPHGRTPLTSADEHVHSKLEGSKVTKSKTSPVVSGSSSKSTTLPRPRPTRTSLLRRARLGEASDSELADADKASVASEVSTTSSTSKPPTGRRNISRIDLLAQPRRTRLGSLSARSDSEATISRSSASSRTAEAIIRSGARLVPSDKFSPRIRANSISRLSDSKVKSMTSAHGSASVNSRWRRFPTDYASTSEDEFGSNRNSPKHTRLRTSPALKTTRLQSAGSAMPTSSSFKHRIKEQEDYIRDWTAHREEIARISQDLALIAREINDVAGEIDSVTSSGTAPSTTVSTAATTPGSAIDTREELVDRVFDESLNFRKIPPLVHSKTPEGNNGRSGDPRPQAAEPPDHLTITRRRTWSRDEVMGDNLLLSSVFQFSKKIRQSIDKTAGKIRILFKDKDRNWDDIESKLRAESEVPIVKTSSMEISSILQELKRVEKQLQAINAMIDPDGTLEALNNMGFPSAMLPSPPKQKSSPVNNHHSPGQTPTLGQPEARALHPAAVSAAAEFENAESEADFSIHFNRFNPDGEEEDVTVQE

Key:
Test in all cases: pull-down; purified GST fusion proteins incubated with 293T lysate; pull-downs analysed by western blot for B55α; only the target purified
[1] = target: T1, GST-HAUS6 (UniProt Q7Z4H7)
T1 sequence: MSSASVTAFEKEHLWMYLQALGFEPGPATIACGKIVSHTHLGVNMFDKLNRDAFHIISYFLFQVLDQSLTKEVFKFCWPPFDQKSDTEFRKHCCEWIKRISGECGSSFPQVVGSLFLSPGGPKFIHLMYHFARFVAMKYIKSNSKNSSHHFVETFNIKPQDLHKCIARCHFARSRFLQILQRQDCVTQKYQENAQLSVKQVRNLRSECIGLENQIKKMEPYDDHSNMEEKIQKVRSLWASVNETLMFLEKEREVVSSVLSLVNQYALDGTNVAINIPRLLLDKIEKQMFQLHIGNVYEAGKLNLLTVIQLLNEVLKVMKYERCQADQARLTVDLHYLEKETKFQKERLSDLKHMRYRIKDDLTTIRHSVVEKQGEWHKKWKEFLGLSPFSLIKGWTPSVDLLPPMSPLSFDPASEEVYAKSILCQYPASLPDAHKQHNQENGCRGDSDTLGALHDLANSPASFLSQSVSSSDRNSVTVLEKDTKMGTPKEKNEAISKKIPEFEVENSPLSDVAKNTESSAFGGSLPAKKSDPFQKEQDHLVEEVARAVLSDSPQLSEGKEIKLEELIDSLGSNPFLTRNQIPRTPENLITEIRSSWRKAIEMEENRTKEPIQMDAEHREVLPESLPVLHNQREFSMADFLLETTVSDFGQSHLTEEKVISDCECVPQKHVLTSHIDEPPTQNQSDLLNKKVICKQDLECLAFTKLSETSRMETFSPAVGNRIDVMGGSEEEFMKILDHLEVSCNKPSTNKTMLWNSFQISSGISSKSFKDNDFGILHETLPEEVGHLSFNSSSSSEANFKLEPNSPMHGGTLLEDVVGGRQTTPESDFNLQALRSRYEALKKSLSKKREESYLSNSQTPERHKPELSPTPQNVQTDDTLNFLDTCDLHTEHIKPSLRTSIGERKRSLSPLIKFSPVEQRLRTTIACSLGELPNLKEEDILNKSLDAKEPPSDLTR

[2] = target: GST-NEDD1 (UniProt Q8NHV4)
[3] = target: GST-CEP170 (UniProt Q5SW79)

Measured: binding

B1: B55α regulatory subunit of PP2A (protein, UniProt P63151 1-447)
chain: MAGAGGGNDIQWCFSQVKGAVDDDVAEADIISTVEFNHSGELLATGDKGGRVVIFQQEQENKIQSHSRGEYNVYSTFQSHEPEFDYLKSLEIEEKINKIRWLPQKNAAQFLLSTNDKTIKLWKISERDKRPEGYNLKEEDGRYRDPTTVTTLRVPVFRPMDLMVEASPRRIFANAHTYHINSISINSDYETYLSADDLRINLWHLEITDRSFNIVDIKPANMEELTEVITAAEFHPNSCNTFVYSSSKGTIRLCDMRASALCDRHSKLFEEPEDPSNRSFFSEIISSISDVKFSHSGRYMMTRDYLSVKIWDLNMENRPVETYQVHEYLRSKLCSLYENDCIFDKFECCWNGSDSVVMTGSYNNFFRMFDRNTKRDITLEASRENNKPRTVLKPRKVCASGKRKKDEISVDSLDFNKKILHTAWHPKENIIAVATTNNLYIFQDKVN
binds: [1] | [2] | [3]
